# According to PubChem BioAssay AID588590 (National Center for Advancing Translational Sciences (NCATS), 2011):
# Amino acid sequences for entries named in this document (tags omitted). A change or cut given only in a name is not applied to a line headed by its entry.
# UniProt Q9UNA4: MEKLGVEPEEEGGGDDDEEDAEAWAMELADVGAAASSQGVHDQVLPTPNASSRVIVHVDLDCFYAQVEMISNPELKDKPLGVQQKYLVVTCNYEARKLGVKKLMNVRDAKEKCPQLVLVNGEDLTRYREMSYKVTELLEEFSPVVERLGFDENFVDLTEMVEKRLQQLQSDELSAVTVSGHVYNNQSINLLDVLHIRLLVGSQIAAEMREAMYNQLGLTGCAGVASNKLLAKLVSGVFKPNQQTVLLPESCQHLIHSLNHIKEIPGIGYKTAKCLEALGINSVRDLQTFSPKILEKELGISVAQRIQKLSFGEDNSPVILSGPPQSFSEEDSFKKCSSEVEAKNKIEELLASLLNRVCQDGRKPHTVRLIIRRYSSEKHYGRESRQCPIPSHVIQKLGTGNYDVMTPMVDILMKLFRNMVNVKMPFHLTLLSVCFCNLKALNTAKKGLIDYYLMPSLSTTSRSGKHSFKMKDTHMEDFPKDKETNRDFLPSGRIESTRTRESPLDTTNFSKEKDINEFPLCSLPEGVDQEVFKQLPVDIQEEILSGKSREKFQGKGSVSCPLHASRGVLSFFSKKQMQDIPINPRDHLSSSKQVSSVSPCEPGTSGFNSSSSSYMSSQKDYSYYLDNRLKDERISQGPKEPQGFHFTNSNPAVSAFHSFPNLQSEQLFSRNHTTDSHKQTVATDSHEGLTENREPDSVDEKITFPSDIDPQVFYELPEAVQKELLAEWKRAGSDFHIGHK
# About 4,000 (1%) of roughly 390,000 compounds were called active. The shares of active, inactive and inconclusive entries below differ from those in the screen. Calls come from the whole dose curve; as a rule, active = well fitted inhibition curve with a large enough effect; inconclusive = small, poorly fitted or top-dose-only effect, or another doubt; inactive = no such curve, though single readings can be large or run the other way. Potencies of inconclusive entries are doubtful fits and often do not repeat.
# Target: DNA polymerase iota (Homo sapiens) (UniProt Q9UNA4)
# Experiment: qHTS for Inhibitors of Polymerase Iota
# Conditions: Pol iota fluorescent replication assay, 10 min; series mostly up to 115 µM; activity, negative = inhibition: at the top concentration
# Outline: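 Pol iota at 10 nM preincubated 15 min with compounds at room temperature; reaction started with fluorescent substrate, 50 nM final. Fluorescence read kinetically at 0 and 10 min; buffer-only wells as negative control.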
# Potency is the fitted concentration of half-maximal effect.
Structure (SMILES),Potency,"activity, negative = inhibition"
COc1ccccc1CNC(=O)C1CC(c2ccccc2[N+](=O)[O-])=NO1 (configuration not stated),"inconclusive: 31.6 µM [inhibitor, partial curve, poor fit]",–
COc1cc(C(=S)N2CCOCC2)cc(OC)c1OS(=O)(=O)c1ccc(Cl)cc1,"inconclusive: 0.316 µM [inhibitor, full curve, poor fit]",–
COc1ccc(C(C2C(=O)CC(C)(C)CC2=O)C2C(=O)CC(C)(C)CC2=O)cc1,"inconclusive: 11.2 µM [inhibitor, partial curve, poor fit]",–
C=CCn1c(=O)/c(=C/c2cc(OC)c(OC)c(OC)c2)s/c1=C(/C#N)c1nc2ccccc2n1C,"inconclusive: 39.8 µM [inhibitor, partial curve, poor fit]",–
CCn1c(SCC(=O)Nc2cc(OC)ccc2OC)nc2c(c1=O)SCC2,–,inactive: -1.39%
CCOc1ccc(/C=C2/C(=O)N(c3ccc(OC)cc3)C(=S)N2CC(=O)OC)cc1OCC,"inconclusive: 3.16 µM [inhibitor, full curve, poor fit]",–
O=S(=O)(c1ccccc1Cl)N1CCN(c2nc(-c3cccs3)nc3ccccc23)CC1,inactive,–
Cc1c(Cl)cccc1NC(=O)CNS(=O)(=O)c1cccs1,–,inactive: 16%
COc1ccc(S(=O)(=O)N2CCCC(C(=O)NCc3ccncc3)C2)cc1Cl (configuration not stated),"inconclusive: 89.1 µM [inhibitor, single point]",–
COc1ccc(/C=C/C(=O)O)cc1S(=O)(=O)N1CCC(C)CC1,–,inactive: -5.69%
CSc1cccc(NC(=O)C2CCN(S(=O)(=O)c3ccc4c(c3)CCCN4C(=O)C3CCC3)CC2)c1,–,inactive: 22%
Cc1ccnc(NC(=O)C2COc3ccccc3O2)c1 (configuration not stated),"inconclusive: 3.98 µM [inhibitor, full curve, poor fit]",–
COc1ccc(N(CC(C)C)S(=O)(=O)c2nnc(NC(=O)c3cccs3)s2)cc1,–,inactive: 16.9%
Cc1c(-c2nn(C)c(=O)c3ccccc23)oc2ccc(F)cc2c1=O,"inconclusive: 10 µM [inhibitor, full curve, poor fit]",–
O=C(Nc1ccccc1)c1sc2cc(C(F)(F)F)cnc2c1-c1cccs1,"inconclusive: 100 µM [inhibitor, single point]",–
Cc1sc2nc(C3CC3)nc(N3CCN(C(=O)c4ccccc4F)CC3)c2c1C,"inconclusive: 25.1 µM [inhibitor, single point]",–
COc1ccc(NC(=O)N2CCN(c3nc4ccccc4n3C(C)C)CC2)cc1,"inconclusive: 89.1 µM [inhibitor, single point]",–
Cn1c(/C=C/c2ccc(Cl)cc2)c([N+](=O)[O-])c(=O)n(C)c1=O,"inconclusive: 44.7 µM [inhibitor, partial curve]",–
O=C(Cn1cnc(S(=O)(=O)N2CCCC2)c1)Nc1ccc(OC(F)(F)F)cc1,"inconclusive: 89.1 µM [inhibitor, single point]",–
CC(C)CN1C(=O)c2ccc(NC(=O)c3ccco3)cc2C1=O,"inconclusive: 100 µM [inhibitor, partial curve, poor fit]",–
Cc1ccn2c(NC3CCCCC3)c(-c3cccc(-c4cccc(Cl)c4)c3)nc2c1,"inconclusive: 2.24 µM [inhibitor, full curve, poor fit]",–

Structure (SMILES),Potency,"activity, negative = inhibition"
COc1ccc(-c2csc(NC(=O)C3CCCO3)n2)cc1 (configuration not stated),"inconclusive: 56.2 µM [inhibitor, partial curve, poor fit]",–
CCOC(=O)Cc1cc(=O)n2[nH]c(C)c(-c3ccc(OC)cc3)c2n1,"inconclusive: 50.1 µM [inhibitor, partial curve, poor fit]",–
O=C(/C=C/c1ccco1)NCC1OCCc2ccccc21 (configuration not stated),active: 14.1 µM,–
Cc1cc(Cl)ccc1OCCCC(=O)NC1CCN(C)CC1,"inconclusive: 100 µM [inhibitor, single point]",–
Cc1ccc(CNC(=O)Cn2ccn(-c3ccc(C)c(C)c3)c(=O)c2=O)cc1,–,inactive: 14.6%
Oc1cccc(Nc2c3ccccc3nc3ccccc23)c1,"inconclusive: 10 µM [inhibitor, partial curve, poor fit]",–
COc1ccc(CCn2c(N)c(C(=O)NCc3ccco3)c3nc4ccccc4nc32)cc1,"inconclusive: 25.1 µM [inhibitor, partial curve, poor fit]",–
O=C(Cc1cccc2ccccc12)N/N=C/c1ccc(OC(=O)/C=C/c2ccco2)cc1,"inconclusive: 50.1 µM [inhibitor, partial curve, poor fit]",–
N#CC1=C(N)Oc2cc3c(cc2C1c1ccc(Cl)cc1)OCO3 (configuration not stated),"inconclusive: 4.47 µM [inhibitor, full curve, poor fit]",–
Cc1ccc(S(=O)(=O)Nc2ccc3cc([N+](=O)[O-])ccc3c2[N+](=O)[O-])cc1,"inconclusive: 25.1 µM [inhibitor, single point]",–
COc1ccc(C(C(=O)NC2CCCC2)N(Cc2cccnc2)C(=O)c2snc(C(N)=O)c2N)cc1 (configuration not stated),"inconclusive: 79.4 µM [inhibitor, partial curve, poor fit]",–
O=C(Nc1ccccc1C(=O)N1CCOCC1)c1ccc(CSc2ccccc2)cc1,"inconclusive: 3.16 µM [inhibitor, single point]",–
Cc1[nH]c2ccccc2c1/C=N/Nc1nc(N2CCCCC2)nc(N2CCCCC2)n1,"inconclusive: 112 µM [inhibitor, partial curve, poor fit]",–
Cc1cccc(OCC(=O)Nc2ccc3nc(C)sc3c2)c1,"inconclusive: 1.12 µM [inhibitor, full curve, poor fit]",–
Cc1cc(O)c(C(C)C)cc1N=Cc1ccccc1O,active: 20 µM,–
CCC[n+]1cn(/C(C(=S)Nc2cccc(Cl)c2C)=C(/[O-])c2ccc(OC)c(OC)c2)c2ccccc21,–,inactive: 93.3%
COc1ccc(C(=O)N(c2ccccc2)C2C=CS(=O)(=O)C2)cc1 (configuration not stated),–,inactive: 9.71%
Cn1c(SCC(=O)Nc2sccc2C#N)nnc1-c1ccccc1,"inconclusive: 35.5 µM [inhibitor, single point]",–
CC[C@@]12C(=O)N(c3ccccc3)C(=O)N1[C@H](c1ccc(Br)cc1)[C@@H]1C(=O)N(C(C)(C)C)C(=O)[C@@H]12,"inconclusive: 44.7 µM [inhibitor, partial curve, poor fit]",–
CCCc1nc2sc3c(SCC(=O)NCc4ccco4)ncnc3c2c2c1CCC2,"inconclusive: 10 µM [inhibitor, full curve, poor fit]",–
Cc1cc(C)c2oc(-c3cccc(NC(=O)c4ccco4)c3)nc2c1,"inconclusive: 100 µM [inhibitor, partial curve, poor fit]",–

Structure (SMILES),Potency,"activity, negative = inhibition"
O=C1NN(c2ccccc2)C(=O)/C1=C\c1coc2ccc(O)cc2c1=O,"inconclusive: 22.4 µM [inhibitor, full curve, poor fit]",–
NC(=O)C1=C[C@@H](c2ccccc2)C[C@@H](OCc2ccc(CO)cc2)O1,"inconclusive: 39.8 µM [inhibitor, partial curve, poor fit]",–
Cc1ccc(S(=O)(=O)n2nc(-c3ccco3)nc2SCc2ccccc2)cc1,"inconclusive: 1.41 µM [inhibitor, full curve, poor fit]",–
O=S(=O)(Nc1ccccc1C(F)(F)F)c1ccc(-c2ccccn2)s1,"inconclusive: 5.62 µM [inhibitor, partial curve, poor fit]",–
O=S(=O)(c1ccc2[nH]c3c(c2c1)CCCCC3)N1CCN(c2ccccc2)CC1,–,inactive: -11.6%
COc1ccc(NC(=O)N/C=C/c2ccccc2)cc1,"inconclusive: 0.631 µM [inhibitor, full curve, poor fit]",–
CCCCC(CCC(=O)NNC(=O)Cc1ccccc1)C(=O)O (configuration not stated),–,inactive: 8.54%
CCN(CC)C(=O)/C(=C/c1cn(S(=O)(=O)N(C)C)c2ccccc12)NC(=O)c1ccc(OC)cc1,–,inactive: 94.5%
CCCSCCCNC(=O)CN1C(=O)COc2ccc(S(=O)(=O)N3CCC(C)CC3)cc21,–,inactive: 19.1%
CNc1ccc(Br)cc(C(=O)/C=C/c2cc(OC)ccc2OC)c1=O,"inconclusive: 12.6 µM [inhibitor, full curve, poor fit]",–
Cc1ccc(S(=O)(=O)N2CCCCC2C(=O)O)s1 (configuration not stated),"inconclusive: 89.1 µM [inhibitor, single point]",–
CCCCN1CCN=C1N(C)C,"inconclusive: 28.2 µM [inhibitor, partial curve, poor fit]",–
O=C1c2cccc3c([N+](=O)[O-])ccc(c23)C(=O)N1CC1CCCO1 (configuration not stated),"inconclusive: 35.5 µM [inhibitor, full curve, poor fit]",–
O=C(Cc1cccc2ccccc12)N/N=C/c1ccc(F)cc1,–,inactive: 18.4%
CCOC(=O)c1cc(-c2ccccc2)sc1NC(=O)CSc1nnnn1C,"inconclusive: 12.6 µM [inhibitor, full curve, poor fit]",–
CCc1cccc(C)c1NC(=O)CSc1nc(-c2ccccc2F)nc2nc[nH]c12,"inconclusive: 89.1 µM [inhibitor, single point]",–
COc1ccc(NC(=O)CSc2oc(-c3cccs3)nc2S(=O)(=O)c2ccc(Br)cc2)c(OC)c1,–,inactive: 42.1%
COc1cccc(CC2(CO)CCCN(Cc3ccc(CN4CCCCC4)s3)C2)c1 (configuration not stated),"inconclusive: 63.1 µM [inhibitor, single point]",–
Cc1ccc(C)c(OCC(=O)NNC(=O)C2CC2)c1,"inconclusive: 89.1 µM [inhibitor, partial curve, poor fit]",–
C/C=C/C=C\C(=O)Nc1cccc(C2=NOC3(C2)C[C@@H](C(N)=O)N(C(=O)c2cc([N+](=O)[O-])cc([N+](=O)[O-])c2)C3)c1 (some centres not stated),"inconclusive: 14.1 µM [inhibitor, partial curve, poor fit]",–

# One compound at a time (already shown):
# `COc1cccc(CC2(CO)CCCN(Cc3ccc(CN4CCCCC4)s3)C2)c1` (configuration not stated) as listed: Potency: inconclusive: 63.1 µM [inhibitor, single point]
# `Cc1ccc(S(=O)(=O)Nc2ccc3cc([N+](=O)[O-])ccc3c2[N+](=O)[O-])cc1` as listed: Potency: inconclusive: 25.1 µM [inhibitor, single point]
